Results: paper PMC10625211
Substitutions are numbered along the chain they refer to. Results are given in words; binding and its absence hold for the method and conditions named. Binding seen in cells or lysates may run through a third protein. A result given as binding can be weak or reduced; the word gives no strength. Where a sequence is shown, tags or fusion partners need not be part of it.

Sequences of proteins named here, by UniProt entry; tags and fusion partners are left off. A change or cut given only in a name is not applied to a line headed by its entry.
UniProt E2QCX5: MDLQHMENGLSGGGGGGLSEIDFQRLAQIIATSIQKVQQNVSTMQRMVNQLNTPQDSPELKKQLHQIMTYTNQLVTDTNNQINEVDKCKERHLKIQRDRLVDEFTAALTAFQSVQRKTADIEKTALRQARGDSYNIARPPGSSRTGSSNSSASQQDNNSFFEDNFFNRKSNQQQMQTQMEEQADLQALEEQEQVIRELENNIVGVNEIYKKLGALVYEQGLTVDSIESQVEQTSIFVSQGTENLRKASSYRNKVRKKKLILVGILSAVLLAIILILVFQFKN

What was measured:
Test in all cases: co-IP; HEK 293T cells co-transfected with Flag-tagged APOL1 variant (100 ng) and HA-tagged SNARE (900 ng), harvested 16 h after transfection; lysis in 50 mM Tris-HCl pH 7.4, 150 mM NaCl, 2 mM MgCl2, 0.5% Nonidet P-40; immunoprecipitation with anti-Flag M2 affinity gel, immunoblotting with Flag or HA antibody
[1] = biological target: T1, Flag-tagged APOL1-G0 (human) (UniProt O14791)
T1 sequence: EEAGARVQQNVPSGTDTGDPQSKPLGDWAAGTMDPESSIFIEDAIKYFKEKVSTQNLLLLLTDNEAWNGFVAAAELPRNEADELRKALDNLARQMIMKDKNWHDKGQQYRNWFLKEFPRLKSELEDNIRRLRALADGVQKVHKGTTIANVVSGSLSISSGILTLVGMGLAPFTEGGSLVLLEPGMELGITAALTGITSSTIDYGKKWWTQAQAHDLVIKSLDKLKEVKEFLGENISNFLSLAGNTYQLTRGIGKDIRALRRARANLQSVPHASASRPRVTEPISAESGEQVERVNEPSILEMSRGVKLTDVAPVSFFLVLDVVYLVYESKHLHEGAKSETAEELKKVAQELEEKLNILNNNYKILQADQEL

[2] = biological target: T2, Flag-tagged APOL1-G2 (human) (UniProt O14791)
T2 sequence: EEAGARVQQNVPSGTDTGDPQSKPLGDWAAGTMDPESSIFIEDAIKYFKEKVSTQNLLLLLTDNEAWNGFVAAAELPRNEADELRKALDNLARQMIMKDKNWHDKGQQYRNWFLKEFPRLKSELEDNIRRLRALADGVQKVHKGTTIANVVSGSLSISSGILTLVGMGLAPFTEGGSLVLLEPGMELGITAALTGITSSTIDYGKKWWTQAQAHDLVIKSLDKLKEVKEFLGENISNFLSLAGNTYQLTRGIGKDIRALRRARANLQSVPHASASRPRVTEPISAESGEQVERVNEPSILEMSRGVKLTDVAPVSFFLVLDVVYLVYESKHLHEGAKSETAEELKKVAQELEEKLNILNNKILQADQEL

[3] = biological target: T3, Flag-tagged APOL1-G1 (human) (UniProt O14791)
T3 sequence: T1 sequence with S315G, I357M

Measured: binding

HA-tagged dSyx7 (from UniProt E2QCX5)
binds: all assays above
